The values below come from paper PMC10732536.

The target in test [1] is T1, Grass (active, cleaved by cSP48) (Drosophila melanogaster) (UniProt Q9VB68).
T1 sequence: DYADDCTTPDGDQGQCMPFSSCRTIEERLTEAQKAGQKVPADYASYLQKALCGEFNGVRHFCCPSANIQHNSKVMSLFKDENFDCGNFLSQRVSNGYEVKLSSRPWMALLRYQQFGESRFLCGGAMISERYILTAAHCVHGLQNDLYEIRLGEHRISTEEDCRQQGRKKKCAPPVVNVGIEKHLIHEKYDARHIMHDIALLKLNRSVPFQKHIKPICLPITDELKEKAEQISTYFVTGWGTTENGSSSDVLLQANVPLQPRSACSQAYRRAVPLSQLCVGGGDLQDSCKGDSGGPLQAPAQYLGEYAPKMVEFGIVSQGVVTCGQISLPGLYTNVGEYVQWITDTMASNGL
The test is described as follows: SDS-stable serpin-protease complex (SDS-PAGE and immunoblot); active Grass made in a mixture of proModSP* (500 ng), procSP48 (100 ng), proGrass (800 ng) in buffer A, 1 hour at 37°C; then Nec (800 ng) added, 1 hour at 37°C; 10% SDS-PAGE under reducing conditions; blots with HA or Nec antibodies; both purified. (In general: In western blotting, separated proteins are transferred to a membrane and probed.)

The target in test [2] is T1, Grass (active, cleaved by cSP48) (Drosophila melanogaster). Description: LC-MS/MS of the SDS-stable Nec-protease bands; reactions (fig. S16) separated by 10% SDS-PAGE, in-gel chymotrypsin digestion of the Nec-protease bands, LC-MS/MS; both purified.
The target of test [3] is T2, Psh (Drosophila melanogaster) (UniProt Q9VWU1).
T2 sequence: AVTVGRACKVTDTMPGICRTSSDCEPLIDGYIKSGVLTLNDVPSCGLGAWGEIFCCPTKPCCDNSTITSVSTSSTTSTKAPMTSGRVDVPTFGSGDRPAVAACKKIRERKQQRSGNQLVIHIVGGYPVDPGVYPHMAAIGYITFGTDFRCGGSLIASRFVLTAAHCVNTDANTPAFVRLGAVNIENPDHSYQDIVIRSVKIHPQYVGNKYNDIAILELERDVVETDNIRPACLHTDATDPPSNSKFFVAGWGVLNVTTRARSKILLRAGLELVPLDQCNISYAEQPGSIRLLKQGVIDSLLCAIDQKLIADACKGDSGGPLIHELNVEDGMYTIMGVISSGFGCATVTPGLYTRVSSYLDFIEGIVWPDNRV
The test is described as follows: SDS-stable serpin-protease complex (SDS-PAGE and immunoblot); Nec with cSP48 (blot with FLAG antibody, fig. S15A) or Psh (blot with anti-Myc antibody, fig. S15B); both purified.

These are yes or no findings as the source states them, for the method shown. For part of these data: A result given as binding can be weak or reduced; the word gives no strength.

Turning to Necrotic (Drosophila melanogaster), the binding entry in test [1] was “binds”; in test [2], “binds”; in test [3], “no binding”.
